# Experimental data published in publication PMC9418311.
# Chains of the proteins cited; added tags and fusions are not shown.
# UniProt Q96HW7: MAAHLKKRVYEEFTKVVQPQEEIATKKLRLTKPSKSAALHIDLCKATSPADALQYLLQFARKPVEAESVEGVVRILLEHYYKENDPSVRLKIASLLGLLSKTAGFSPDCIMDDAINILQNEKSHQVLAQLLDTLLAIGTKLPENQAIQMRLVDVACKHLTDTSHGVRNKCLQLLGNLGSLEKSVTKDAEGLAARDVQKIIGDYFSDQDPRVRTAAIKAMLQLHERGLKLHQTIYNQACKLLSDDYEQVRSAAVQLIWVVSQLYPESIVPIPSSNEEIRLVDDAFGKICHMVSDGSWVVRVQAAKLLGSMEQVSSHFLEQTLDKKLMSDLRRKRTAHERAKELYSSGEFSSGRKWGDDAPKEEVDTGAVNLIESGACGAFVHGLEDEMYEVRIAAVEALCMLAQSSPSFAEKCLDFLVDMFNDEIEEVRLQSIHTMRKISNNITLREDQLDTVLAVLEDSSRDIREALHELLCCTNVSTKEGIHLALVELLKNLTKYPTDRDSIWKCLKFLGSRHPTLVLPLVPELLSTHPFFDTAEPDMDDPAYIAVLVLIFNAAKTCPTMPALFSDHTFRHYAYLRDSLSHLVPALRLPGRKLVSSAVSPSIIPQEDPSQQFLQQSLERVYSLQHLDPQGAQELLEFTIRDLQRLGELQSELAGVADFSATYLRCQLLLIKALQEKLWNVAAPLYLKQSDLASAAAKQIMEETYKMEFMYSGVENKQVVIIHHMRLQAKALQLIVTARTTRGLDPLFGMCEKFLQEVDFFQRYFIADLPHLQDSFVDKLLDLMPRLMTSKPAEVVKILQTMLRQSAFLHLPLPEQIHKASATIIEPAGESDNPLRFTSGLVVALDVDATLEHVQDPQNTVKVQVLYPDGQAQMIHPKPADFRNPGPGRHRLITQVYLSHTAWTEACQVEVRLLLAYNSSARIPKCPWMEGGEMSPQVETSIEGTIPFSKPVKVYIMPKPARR
# Results are given in words; binding and its absence hold for the method and conditions named. In cells and extracts the contact can be indirect. Some entries that bind do so weakly or less than the wild type.
# T1: BRCA1-associated ATM activator 1 (BRAT1), endogenous wild type (human (endogenous in U2OS, fibroblasts and LCLs)) (UniProt Q6PJG6)
# T1 sequence: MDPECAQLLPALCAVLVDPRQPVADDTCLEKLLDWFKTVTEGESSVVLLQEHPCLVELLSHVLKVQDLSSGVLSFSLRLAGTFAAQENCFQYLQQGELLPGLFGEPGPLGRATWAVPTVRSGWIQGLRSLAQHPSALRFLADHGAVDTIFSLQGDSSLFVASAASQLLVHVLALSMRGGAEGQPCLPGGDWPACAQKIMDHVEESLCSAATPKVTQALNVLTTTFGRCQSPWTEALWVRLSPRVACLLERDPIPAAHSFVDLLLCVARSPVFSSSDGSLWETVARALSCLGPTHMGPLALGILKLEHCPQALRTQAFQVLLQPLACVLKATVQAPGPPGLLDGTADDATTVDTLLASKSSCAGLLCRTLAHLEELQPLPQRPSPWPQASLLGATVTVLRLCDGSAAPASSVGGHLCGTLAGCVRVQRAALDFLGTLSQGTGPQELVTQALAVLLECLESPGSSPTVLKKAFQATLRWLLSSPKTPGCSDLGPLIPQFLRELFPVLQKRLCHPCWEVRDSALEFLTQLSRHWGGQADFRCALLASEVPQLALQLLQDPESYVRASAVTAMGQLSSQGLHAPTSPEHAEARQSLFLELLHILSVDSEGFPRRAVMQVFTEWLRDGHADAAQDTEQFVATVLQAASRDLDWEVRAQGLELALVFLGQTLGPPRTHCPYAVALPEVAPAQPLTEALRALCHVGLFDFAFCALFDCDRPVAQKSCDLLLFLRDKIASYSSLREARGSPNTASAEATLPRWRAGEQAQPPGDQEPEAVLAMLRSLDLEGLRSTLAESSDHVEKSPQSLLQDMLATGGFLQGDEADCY
# B1: BRCA1-associated ATM activator 1 (BRAT1), endogenous wild type (protein, UniProt Q6PJG6-1 1-821)
# chain: MDPECAQLLPALCAVLVDPRQPVADDTCLEKLLDWFKTVTEGESSVVLLQEHPCLVELLSHVLKVQDLSSGVLSFSLRLAGTFAAQENCFQYLQQGELLPGLFGEPGPLGRATWAVPTVRSGWIQGLRSLAQHPSALRFLADHGAVDTIFSLQGDSSLFVASAASQLLVHVLALSMRGGAEGQPCLPGGDWPACAQKIMDHVEESLCSAATPKVTQALNVLTTTFGRCQSPWTEALWVRLSPRVACLLERDPIPAAHSFVDLLLCVARSPVFSSSDGSLWETVARALSCLGPTHMGPLALGILKLEHCPQALRTQAFQVLLQPLACVLKATVQAPGPPGLLDGTADDATTVDTLLASKSSCAGLLCRTLAHLEELQPLPQRPSPWPQASLLGATVTVLRLCDGSAAPASSVGGHLCGTLAGCVRVQRAALDFLGTLSQGTGPQELVTQALAVLLECLESPGSSPTVLKKAFQATLRWLLSSPKTPGCSDLGPLIPQFLRELFPVLQKRLCHPCWEVRDSALEFLTQLSRHWGGQADFRCALLASEVPQLALQLLQDPESYVRASAVTAMGQLSSQGLHAPTSPEHAEARQSLFLELLHILSVDSEGFPRRAVMQVFTEWLRDGHADAAQDTEQFVATVLQAASRDLDWEVRAQGLELALVFLGQTLGPPRTHCPYAVALPEVAPAQPLTEALRALCHVGLFDFAFCALFDCDRPVAQKSCDLLLFLRDKIASYSSLREARGSPNTASAEATLPRWRAGEQAQPPGDQEPEAVLAMLRSLDLEGLRSTLAESSDHVEKSPQSLLQDMLATGGFLQGDEADCY
# Tests used:
# [1] = target: T1, BRCA1-associated ATM activator 1 (BRAT1), endogenous wild type (human (endogenous in U2OS, fibroblasts and LCLs)); assay: co-IP; endogenous bait (BRAT1, INTS11 or INTS4) immunoprecipitated with 1 ug antibody overnight at 4 C from U2OS lysate in EBC buffer, protein A/G resin, Western blot; BRAT1-/- cells as control; more input material for INTS1 and INTS4
# [2] = target: Integrator complex subunit INTS4, endogenous (human (endogenous in U2OS)) (UniProt Q96HW7); assay: as above
Molecule,binding [1],binding [2]
"Integrator complex subunit INTS4, endogenous (from UniProt Q96HW7 1-963)",binds weakly,–
B1,–,binds weakly
